PMC8629984
No constants are given. Whether binding was seen depends on the method and setting. In cells and extracts the contact can be indirect. Binding calls can cover weak binding; strength is not graded here. Sequences can lack the tags named with a protein.

Target: T1, His-tagged ATG9B (ATG9B^His) (human) (UniProt Q674R7)
T1 sequence: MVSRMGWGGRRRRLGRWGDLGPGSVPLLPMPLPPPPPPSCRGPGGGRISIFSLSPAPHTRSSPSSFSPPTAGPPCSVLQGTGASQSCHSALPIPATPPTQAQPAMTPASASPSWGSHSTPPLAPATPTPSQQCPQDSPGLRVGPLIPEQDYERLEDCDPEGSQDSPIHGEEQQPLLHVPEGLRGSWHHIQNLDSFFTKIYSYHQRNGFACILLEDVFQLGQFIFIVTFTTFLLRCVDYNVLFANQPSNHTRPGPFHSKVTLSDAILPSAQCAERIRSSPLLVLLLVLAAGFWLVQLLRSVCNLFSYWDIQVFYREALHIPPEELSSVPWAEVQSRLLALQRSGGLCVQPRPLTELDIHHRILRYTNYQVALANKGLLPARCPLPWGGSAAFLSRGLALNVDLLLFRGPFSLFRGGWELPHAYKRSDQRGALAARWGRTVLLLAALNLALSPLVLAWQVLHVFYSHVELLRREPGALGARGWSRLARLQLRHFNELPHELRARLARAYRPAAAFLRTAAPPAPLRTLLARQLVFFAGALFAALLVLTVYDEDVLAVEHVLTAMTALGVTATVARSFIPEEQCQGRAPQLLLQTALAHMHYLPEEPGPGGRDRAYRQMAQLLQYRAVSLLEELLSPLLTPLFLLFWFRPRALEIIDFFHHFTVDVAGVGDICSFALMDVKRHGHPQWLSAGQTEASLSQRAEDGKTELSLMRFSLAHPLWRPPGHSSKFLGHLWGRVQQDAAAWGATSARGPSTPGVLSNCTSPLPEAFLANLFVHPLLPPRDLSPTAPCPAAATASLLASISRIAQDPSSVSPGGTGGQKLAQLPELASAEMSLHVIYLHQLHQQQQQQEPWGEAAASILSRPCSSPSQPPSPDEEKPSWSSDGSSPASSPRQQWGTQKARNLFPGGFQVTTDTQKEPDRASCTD
Test: co-IP; HEK293T cells transfected with His-tagged ATG9B constructs and Flag-tagged MYH9 constructs, RIPA lysates, IP with anti-Flag or anti-His, western blot

“Flag-MYH9 truncation with the head domain (aa77–777) (human) (domain or fragment)” was tested. Which binding did it give?
The binding was “binds”.
